This passage reports binding results from PMC6065531.

Assay [1] has as its target T1, MBP-Cnn-PA-N (D. melanogaster) (UniProt P54623).
T1 sequence: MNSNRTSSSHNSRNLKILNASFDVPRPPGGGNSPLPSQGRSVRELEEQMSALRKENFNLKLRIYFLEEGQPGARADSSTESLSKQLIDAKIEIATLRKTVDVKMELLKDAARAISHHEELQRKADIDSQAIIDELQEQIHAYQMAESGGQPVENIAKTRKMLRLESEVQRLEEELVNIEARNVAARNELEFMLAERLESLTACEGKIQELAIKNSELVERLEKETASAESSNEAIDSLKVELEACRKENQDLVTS
Description: co-IP; purified MBP-Cnn fragments (2.5 μg/ml) added to embryo extract with or without sfGFP-Mzt1, 1 h at 4°C; anti-MBP antibodies on protein A Dynabeads overnight at 4°C; western blot; only the target purified. On the technique in general: Immunoblotting shows a protein as a band on a membrane.

Assay [2] has as its target Mzt1 (bait, pGBKT7-Mzt1) (D. melanogaster) (UniProt Q6ILY6). Nature of the assay: two-hybrid; Matchmaker Gold; Mzt1 as bait (pGBKT7, Y2HGold), Grip NTE fragments as prey (pGADT7, Y187); mated yeast spotted on DDO and QDO plates (QDO with aureobasidin A), both with X-α-Gal; 30°C, ~3 days.

Results are given in words; binding and its absence hold for the method and conditions named. For some assays here: A result given as binding can be weak or reduced; the word gives no strength. For some assays here: In cells and extracts the contact can be indirect. For some assays here: Tags and fused reporters may be left off the sequences shown.

For the molecule “γ-tubulin (D. melanogaster (endogenous in embryos))”, in assay [1], the binding entry is “no binding (tested: 2.5 μg/ml)”.

B1: N-terminal extension (NTE) region of Grip91 (aa1-231) (domain or fragment, UniProt Q9XYP8 1-231)
chain: MSQDRIAGIDVATNSTDISNIINEMIICIKGKQMPEVHEKAMDHLSKMIAANSRVIRDSNMLTERECVQKIMKLLSARNKKEEGKTVSDHFNELYRKLTLTKCDPHMRHSLMTHLLTMTDNSDAEKAVASEDPRTQCDNLTQILVSRLNSISSSIASLNEMGVVNGNGVGAAAVTGAAAVTGAAAVTGAAAVTGAAASHSYDATQSSIGLRKQSLPNYLDATKMLPESRHD
On to B1, for which, in assay [2], the binding entry is recorded as “binds weakly”.
